One substance from patent publication US9067968B2 (The Regents of the University of Colorado, a body corporate, priority 2007, dated 2015) can be followed below.

A short description of the data set: general procedure: Fmoc solid-phase peptide synthesis; pre-loaded Fmoc-D-Cys-Wang resin, 0.5 mmol/g (all D-form peptide); DIC/HOBt. To be noted: whole synthesis.

For the substance “cyclic H-CLYHYC-OH (flanking Cys, cyclised; TJ Protein Modulator 1)”, the “final purity (method not given)” value was determined as 95%.
